Experiment: general procedure: solution-phase peptide synthesis; EDC/1-hydroxybenzotriazole (fragment couplings); TBTU/1-hydroxybenzotriazole/dii

Substance	step yield (coupling step) [%]	also measured
Argyrin A	–	cyclisation yield (cyclisation step): 57%
Argyrin F	–	step yield (late stage modification step): 58% yield
N-Boc-D-AlaThz-Trp-(4-OMe)Trp-Gly-D-Ala-DHA-Sar-OEt	81	–
N-Boc-D-SerThz-Trp-(4-OMe)Trp-Gly-D-Ala-DHA-Sar-OEt	76	–
N^α-Boc-D-AlaThz-Trp-(4-OMe)Trp-Gly-OMe	78	–
N^α-Boc-D-SerThz-Trp-(4-OMe)Trp-Gly-OMe	78	–

— patent US9458200B2 (Gottfried Wilhelm Leibniz Universität Hannover, priority 2008, dated 2016)
